According to PMC12483566:
No constants are given. Whether binding was seen depends on the method and setting. In cells and extracts the contact can be indirect. Some results given as binding are weak or reduced against the parent protein; the word gives no strength. Sequences can lack the tags named with a protein.

Assays:
[1] = molecular target: mitochondrial thioredoxin reductase-2 (TXNRD2), V5-tagged, wild type (human) (UniProt Q9NNW7); test: co-IP; HT-1080 cells overexpressing TXNRD2 (V5-tagged) and TXN2 (Myc-tagged); TXNRD2 immunoprecipitated with anti-V5 beads, TXN2 detected with anti-Myc; cells untreated, with CoA (100 μM, 18 hours), or with erastin plus CoA; lysed in NEM buffer
[2] = molecular target: mitochondrial thioredoxin reductase-2 (TXNRD2), V5-tagged, wild type (human) (UniProt Q9NNW7); test: condition: only cells treated with erastin (2.5 μM, 18 hours); co-IP; HT-1080 cells overexpressing TXNRD2 and TXN2 treated with erastin (2.5 μM, 18 hours) without CoA; lysed in NEM buffer

B1: mitochondrial thioredoxin 2 (TXN2), Myc-tagged (protein, UniProt Q99757 60-166)
chain: TTFNIQDGPDFQDRVVNSETPVVVDFHAQWCGPCKILGPRLEKMVAKQHGKVVMAKVDIDDHTDLAIEYEVSAVPTVLAMKNGDVVDKFVGIKDEDQLEAFLKKLIG
For B1, the binding [1] was “binds” and the binding [2] was “no binding”.
